# Data as given in article PMC3958307.
# Sequences of proteins named here, by UniProt entry; tags and fusion partners are left off.
# UniProt Q02248: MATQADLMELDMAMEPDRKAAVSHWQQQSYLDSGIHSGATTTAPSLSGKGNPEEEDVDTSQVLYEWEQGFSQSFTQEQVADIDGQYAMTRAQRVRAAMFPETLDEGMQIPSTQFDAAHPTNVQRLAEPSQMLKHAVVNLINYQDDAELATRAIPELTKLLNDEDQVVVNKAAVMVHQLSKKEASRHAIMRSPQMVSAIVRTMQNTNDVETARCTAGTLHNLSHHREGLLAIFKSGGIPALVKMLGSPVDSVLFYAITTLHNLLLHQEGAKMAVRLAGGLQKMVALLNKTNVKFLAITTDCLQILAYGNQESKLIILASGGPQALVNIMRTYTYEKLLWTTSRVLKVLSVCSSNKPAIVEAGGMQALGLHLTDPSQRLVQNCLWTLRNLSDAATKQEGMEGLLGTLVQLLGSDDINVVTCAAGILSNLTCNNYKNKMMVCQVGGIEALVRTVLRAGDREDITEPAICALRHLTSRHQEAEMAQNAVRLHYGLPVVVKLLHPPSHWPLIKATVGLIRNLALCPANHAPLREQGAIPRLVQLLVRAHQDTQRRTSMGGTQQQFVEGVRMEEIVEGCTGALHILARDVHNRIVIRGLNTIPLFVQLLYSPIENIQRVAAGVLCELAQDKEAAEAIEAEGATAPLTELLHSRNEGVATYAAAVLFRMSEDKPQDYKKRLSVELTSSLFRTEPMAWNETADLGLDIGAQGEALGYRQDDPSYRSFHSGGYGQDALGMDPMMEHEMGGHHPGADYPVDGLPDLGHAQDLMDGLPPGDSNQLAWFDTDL
# UniProt Q3TKT4: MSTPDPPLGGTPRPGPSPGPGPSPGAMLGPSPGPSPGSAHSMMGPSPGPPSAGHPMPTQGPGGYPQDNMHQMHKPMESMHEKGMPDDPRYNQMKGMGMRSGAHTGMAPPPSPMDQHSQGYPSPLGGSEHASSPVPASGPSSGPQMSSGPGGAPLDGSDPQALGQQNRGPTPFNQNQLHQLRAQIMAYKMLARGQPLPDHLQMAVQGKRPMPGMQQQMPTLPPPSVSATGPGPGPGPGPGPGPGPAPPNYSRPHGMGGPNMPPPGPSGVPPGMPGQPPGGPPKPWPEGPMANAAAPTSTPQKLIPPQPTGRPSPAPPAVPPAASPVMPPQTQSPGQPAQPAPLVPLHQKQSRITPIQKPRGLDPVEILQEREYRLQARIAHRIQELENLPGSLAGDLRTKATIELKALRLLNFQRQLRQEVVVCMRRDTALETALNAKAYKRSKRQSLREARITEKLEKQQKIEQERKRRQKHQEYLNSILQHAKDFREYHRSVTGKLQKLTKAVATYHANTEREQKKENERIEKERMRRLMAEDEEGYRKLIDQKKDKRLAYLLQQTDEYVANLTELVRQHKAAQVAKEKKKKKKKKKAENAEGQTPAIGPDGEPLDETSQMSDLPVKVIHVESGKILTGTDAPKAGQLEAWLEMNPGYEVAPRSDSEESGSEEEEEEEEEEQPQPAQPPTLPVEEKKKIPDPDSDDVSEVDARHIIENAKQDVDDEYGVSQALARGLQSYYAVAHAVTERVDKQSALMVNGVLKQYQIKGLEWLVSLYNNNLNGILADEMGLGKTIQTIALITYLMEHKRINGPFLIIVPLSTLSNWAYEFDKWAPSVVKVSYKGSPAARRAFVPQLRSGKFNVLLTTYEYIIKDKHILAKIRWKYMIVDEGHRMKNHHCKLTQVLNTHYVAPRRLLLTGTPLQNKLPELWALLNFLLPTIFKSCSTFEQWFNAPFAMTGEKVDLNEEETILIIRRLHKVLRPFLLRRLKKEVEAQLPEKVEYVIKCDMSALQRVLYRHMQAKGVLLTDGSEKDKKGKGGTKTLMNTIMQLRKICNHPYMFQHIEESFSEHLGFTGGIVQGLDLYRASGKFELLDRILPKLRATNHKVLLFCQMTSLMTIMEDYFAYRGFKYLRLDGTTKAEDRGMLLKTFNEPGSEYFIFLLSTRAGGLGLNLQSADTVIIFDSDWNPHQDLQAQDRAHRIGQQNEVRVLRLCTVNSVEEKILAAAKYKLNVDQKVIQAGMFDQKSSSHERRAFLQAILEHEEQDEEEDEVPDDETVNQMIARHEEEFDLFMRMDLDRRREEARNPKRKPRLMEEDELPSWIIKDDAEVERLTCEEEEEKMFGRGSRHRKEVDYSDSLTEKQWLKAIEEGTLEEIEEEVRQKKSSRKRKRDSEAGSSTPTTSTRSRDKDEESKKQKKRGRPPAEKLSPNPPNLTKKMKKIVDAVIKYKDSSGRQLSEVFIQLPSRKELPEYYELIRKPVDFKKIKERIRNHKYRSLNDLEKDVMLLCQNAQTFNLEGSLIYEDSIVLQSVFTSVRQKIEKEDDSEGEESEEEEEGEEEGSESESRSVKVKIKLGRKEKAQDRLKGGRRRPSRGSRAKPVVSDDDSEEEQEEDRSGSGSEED
# No constants are given. Whether binding was seen depends on the method and setting. In cells and extracts the contact can be indirect. Some results given as binding are weak or reduced against the parent protein; the word gives no strength.
# Tests used:
# [1] = molecular target: T1, Telomerase reverse transcriptase (mouse (endogenous in BMMSCs)) (UniProt O70372); assay: co-IP; nuclear proteins extracted from mouse BMMSCs (WT and TERT-/-), immunoprecipitated with TERT or β-catenin polyclonal antibodies, captured complexes analysed by Western blotting
# T1 sequence: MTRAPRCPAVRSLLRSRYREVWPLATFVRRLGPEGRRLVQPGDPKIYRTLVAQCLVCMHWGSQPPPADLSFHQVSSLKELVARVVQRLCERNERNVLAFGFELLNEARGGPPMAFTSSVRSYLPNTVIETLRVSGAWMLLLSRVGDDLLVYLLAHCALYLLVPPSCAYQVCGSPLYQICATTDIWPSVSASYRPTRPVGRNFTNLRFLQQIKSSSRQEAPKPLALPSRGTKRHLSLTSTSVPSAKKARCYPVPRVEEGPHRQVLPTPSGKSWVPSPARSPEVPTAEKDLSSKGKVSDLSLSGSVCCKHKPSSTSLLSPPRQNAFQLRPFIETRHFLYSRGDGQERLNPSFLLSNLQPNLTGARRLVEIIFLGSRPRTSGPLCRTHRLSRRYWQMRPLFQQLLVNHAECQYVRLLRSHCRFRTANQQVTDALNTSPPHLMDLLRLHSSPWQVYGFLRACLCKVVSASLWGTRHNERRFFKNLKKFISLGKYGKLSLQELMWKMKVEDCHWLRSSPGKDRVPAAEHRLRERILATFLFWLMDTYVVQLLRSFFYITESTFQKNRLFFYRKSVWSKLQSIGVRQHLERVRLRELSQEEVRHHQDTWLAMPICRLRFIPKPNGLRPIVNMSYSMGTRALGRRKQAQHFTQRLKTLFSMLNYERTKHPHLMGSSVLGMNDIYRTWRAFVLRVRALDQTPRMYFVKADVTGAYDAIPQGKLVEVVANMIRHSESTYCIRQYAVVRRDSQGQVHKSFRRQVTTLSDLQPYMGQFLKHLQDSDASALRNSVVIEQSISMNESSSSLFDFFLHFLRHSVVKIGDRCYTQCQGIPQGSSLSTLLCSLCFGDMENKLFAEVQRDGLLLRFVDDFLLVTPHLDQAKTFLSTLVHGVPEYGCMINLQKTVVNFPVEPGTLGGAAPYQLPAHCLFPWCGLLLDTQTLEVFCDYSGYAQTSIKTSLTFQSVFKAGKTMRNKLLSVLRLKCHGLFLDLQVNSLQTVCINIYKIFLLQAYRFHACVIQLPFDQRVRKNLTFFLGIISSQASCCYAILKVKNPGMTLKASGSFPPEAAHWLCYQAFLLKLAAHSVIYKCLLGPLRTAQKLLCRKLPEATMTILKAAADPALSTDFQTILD
# [2] = molecular target: β-catenin (mouse (endogenous in BMMSCs)) (UniProt Q02248); assay: as above
binding [1],binding [2],Substance
binds,,β-catenin (from UniProt Q02248 1-781)
binds,binds,BRG1 (from UniProt Q3TKT4 1-1613)
